Drawing on publication PMC5172536, this text covers binding for three substances.

These are yes or no findings as the source states them, for the method shown. Binding seen in cells or lysates may run through a third protein. Binding calls can cover weak binding; strength is not graded here.

The target in this test is T1, IκB kinase complex-associated protein (IKAP) (human (endogenous in HEK 293nt)) (UniProt O95163).
T1 sequence: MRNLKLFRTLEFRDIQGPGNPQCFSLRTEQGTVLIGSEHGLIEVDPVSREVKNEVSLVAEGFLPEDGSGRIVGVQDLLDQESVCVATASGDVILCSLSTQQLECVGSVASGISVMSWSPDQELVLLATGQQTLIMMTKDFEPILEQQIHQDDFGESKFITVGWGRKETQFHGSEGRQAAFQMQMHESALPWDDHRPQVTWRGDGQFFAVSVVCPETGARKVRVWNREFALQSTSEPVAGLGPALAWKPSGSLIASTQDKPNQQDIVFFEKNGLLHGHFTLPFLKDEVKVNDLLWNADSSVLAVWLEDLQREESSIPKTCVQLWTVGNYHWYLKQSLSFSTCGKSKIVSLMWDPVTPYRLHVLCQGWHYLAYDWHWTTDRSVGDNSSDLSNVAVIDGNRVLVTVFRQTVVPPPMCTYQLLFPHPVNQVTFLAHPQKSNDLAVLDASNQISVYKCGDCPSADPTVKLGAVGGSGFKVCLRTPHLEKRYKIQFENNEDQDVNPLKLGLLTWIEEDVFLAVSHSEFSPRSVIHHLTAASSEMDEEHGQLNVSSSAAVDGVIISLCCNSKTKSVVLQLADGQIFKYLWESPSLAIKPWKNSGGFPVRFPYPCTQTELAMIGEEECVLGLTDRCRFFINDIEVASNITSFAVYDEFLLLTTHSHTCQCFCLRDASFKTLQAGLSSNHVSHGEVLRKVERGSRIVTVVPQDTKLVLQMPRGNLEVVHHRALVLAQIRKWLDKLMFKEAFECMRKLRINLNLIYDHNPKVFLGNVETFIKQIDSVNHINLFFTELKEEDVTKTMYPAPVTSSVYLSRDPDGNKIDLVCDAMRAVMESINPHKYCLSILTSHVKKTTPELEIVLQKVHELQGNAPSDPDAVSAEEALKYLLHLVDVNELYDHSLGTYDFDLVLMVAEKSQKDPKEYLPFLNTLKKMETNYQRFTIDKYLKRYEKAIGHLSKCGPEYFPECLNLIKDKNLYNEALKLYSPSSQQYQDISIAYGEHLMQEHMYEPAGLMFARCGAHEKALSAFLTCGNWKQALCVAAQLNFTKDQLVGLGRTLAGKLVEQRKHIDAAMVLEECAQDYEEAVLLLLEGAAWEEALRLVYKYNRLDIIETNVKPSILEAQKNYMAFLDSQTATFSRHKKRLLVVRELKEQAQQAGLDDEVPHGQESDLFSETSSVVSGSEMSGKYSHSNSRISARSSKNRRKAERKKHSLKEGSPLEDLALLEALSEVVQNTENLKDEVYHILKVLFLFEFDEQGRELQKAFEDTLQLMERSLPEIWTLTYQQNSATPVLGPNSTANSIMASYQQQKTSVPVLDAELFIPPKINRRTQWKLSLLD
As to the kind of experiment: co-IP; endogenous IKAP precipitated with anti-IKAP antibody on protein A Dynabeads from HEK 293nt lysate; cells crosslinked with 0.1% formaldehyde, sonicated; IP buffer 50 mM HEPES pH 7.6, 500 mM LiCl, 1 mM EDTA, 0.7% DOC, 1% NP-40, 0.1% SDS; 12 h at 4°C; western blot. (A western blot detects proteins with antibodies after separation by electrophoresis.)
Consider “α-tubulin (human (endogenous in HEK 293nt))”, for which the binding entry is reported as “binds”. Under “c-Jun N-terminal kinase (JNK) (human (endogenous in HEK 293nt))” stands “binds”; under ERK (human (endogenous in HEK 293nt)), “no binding”.
